Measurements reported in PubChem BioAssay AID1259308 (NCATS, 2017).

Aim: 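Knock-downs that increase output of a recombinant reporter protein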 (primary screen)
Cells: human HEK293 embryonic kidney cells stably expressing firefly luciferase (HEK-CMV-Luc2-Hygro)
Reagents: single siRNA against human genes, 0.8 pmol siRNA per well
Duration: 72 h
Measured: 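Luciferase light (ONE-Glo) measured on one replicate plate set and viability (CellTiter-Glo) on the other, scaled to a negative control siRNA, with robust z-scores and luciferase per cell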
Reading the numbers: total luciferase, z-score and total luciferase, % of control: higher = more reporter protein produced
Rule for the call: 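An siRNA counts as active if its total luciferase robust z-score exceeds 3; genes with two or more such siRNAs out of three were retested with fresh siRNAs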
Calls: active = raised luciferase; inactive = no rise
This is a random part of about 59,000 reagents. Of all reagents, about 1,510 (2.6%) got an active call. 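Calls use total luciferase alone and ignore viability, so some active siRNAs may act by altering cell number.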 The numbers tell different reagents against one gene apart. Further read-outs or replicates are left out here.

gene,reagent,"total luciferase, z-score","total luciferase, % of control",activity call
EPOR,1,-0.86,64.8,inactive
EPOR,2,0.239,86.6,inactive
EPOR,3,0.234,86.5,inactive
HMGN1P38,1,-2.66,28.9,inactive
HMGN1P38,2,5.63,194,active
HMGN1P38,3,0.77,97.2,inactive
ZNF892,1,0.935,100,inactive
ZNF892,2,2.19,125,inactive
ZNF892,3,2.57,133,inactive
GRAP2,1,0.761,97,inactive
GRAP2,2,0.409,90,inactive
GRAP2,3,-0.678,68.4,inactive
AZGP1,1,1.8,118,inactive
AZGP1,2,-1.38,54.4,inactive
AZGP1,3,1.98,121,inactive
BRDTP1,1,-0.118,79.5,inactive
BRDTP1,2,0.263,87.1,inactive
BRDTP1,3,-0.4,73.9,inactive
NFASC,1,-0.75,67,inactive
NFASC,2,0.209,86,inactive
NFASC,3,-0.763,66.7,inactive
LOC107984399,1,1.12,104,inactive
LOC107984399,2,2.01,122,inactive
LOC107984399,3,-0.213,77.7,inactive
MAN1A2,1,-0.505,71.8,inactive
MAN1A2,2,-1.5,52,inactive
MAN1A2,3,0.0989,83.9,inactive
MBNL2,1,0.0941,83.8,inactive
MBNL2,2,-2.14,39.4,inactive
MBNL2,3,-0.568,70.6,inactive
SIGIRR,1,1.27,107,inactive
SIGIRR,2,-0.435,73.2,inactive
SIGIRR,3,0.421,90.3,inactive
ASAP2,1,0.589,93.6,inactive
ASAP2,2,-1.74,47.3,inactive
ASAP2,3,0.932,100,inactive
SDC3,1,0.0177,82.2,inactive
SDC3,2,-0.0416,81.1,inactive
SDC3,3,-2.06,41,inactive
WDR11,1,-0.165,78.6,inactive
WDR11,2,-0.746,67,inactive
WDR11,3,0.568,93.2,inactive
TTC17,1,0.373,89.3,inactive
TTC17,2,1.78,117,inactive
TTC17,3,-1.63,49.4,inactive
RILP,1,1.34,109,inactive
RILP,2,-0.244,77,inactive
RILP,3,0.0289,82.5,inactive

The list goes on, starting with the last 7 of the part before.
gene,reagent,"total luciferase, z-score","total luciferase, % of control",activity call
WDR11,3,0.568,93.2,inactive
TTC17,1,0.373,89.3,inactive
TTC17,2,1.78,117,inactive
TTC17,3,-1.63,49.4,inactive
RILP,1,1.34,109,inactive
RILP,2,-0.244,77,inactive
RILP,3,0.0289,82.5,inactive
CCN3,1,3.36,149,active
CCN3,2,-0.269,76.5,inactive
CCN3,3,0.432,90.5,inactive
SYNGR3,1,-0.212,77.7,inactive
SYNGR3,2,0.209,86,inactive
SYNGR3,3,0.588,93.6,inactive
METTL8,1,0.36,89.1,inactive
METTL8,2,0.159,85.1,inactive
METTL8,3,-0.103,79.8,inactive
BCAP31,1,0.442,90.7,inactive
BCAP31,2,0.425,90.3,inactive
BCAP31,3,0.0208,82.3,inactive
BCL3,1,-0.642,69.1,inactive
BCL3,2,-0.86,64.8,inactive
BCL3,3,-1.31,55.9,inactive
ARRDC5,1,0.0375,82.6,inactive
ARRDC5,2,0.0233,82.4,inactive
ARRDC5,3,-0.481,72.3,inactive
CLOCK,1,-1.67,48.7,inactive
CLOCK,2,-1.31,55.9,inactive
CLOCK,3,-0.715,67.7,inactive
MRPL52,1,2.56,133,inactive
MRPL52,2,1.78,117,inactive
MRPL52,3,-0.63,69.3,inactive
COL9A3,1,1.95,121,inactive
COL9A3,2,-0.55,70.9,inactive
COL9A3,3,-0.615,69.7,inactive
